Part of at least one peptide drawing is inferred or uncertain, most often the ends. Peptide text beside a SMILES is read from it.
What was measured:
LTBP1 = target: T1, LTBP1 (Rattus norvegicus, UniProt Q00918); experiment: Peptide binding to LTBP1 immunoprecipitates of rat tibial growth plate cartilage; conditions: rat tibial growth plate cartilage immunoprecipitated extracts
T1 construct: from tissue; host or cells: tibial growth plate cartilage of day 14 Sprague-Dawley rat pups, CHAPS extract, immunoprecipitated with anti-LTBP1

The chains behind the UniProt entries cited, without tags or fusion partners. Residues count along the entry.
UniProt Q00918, 21-1712: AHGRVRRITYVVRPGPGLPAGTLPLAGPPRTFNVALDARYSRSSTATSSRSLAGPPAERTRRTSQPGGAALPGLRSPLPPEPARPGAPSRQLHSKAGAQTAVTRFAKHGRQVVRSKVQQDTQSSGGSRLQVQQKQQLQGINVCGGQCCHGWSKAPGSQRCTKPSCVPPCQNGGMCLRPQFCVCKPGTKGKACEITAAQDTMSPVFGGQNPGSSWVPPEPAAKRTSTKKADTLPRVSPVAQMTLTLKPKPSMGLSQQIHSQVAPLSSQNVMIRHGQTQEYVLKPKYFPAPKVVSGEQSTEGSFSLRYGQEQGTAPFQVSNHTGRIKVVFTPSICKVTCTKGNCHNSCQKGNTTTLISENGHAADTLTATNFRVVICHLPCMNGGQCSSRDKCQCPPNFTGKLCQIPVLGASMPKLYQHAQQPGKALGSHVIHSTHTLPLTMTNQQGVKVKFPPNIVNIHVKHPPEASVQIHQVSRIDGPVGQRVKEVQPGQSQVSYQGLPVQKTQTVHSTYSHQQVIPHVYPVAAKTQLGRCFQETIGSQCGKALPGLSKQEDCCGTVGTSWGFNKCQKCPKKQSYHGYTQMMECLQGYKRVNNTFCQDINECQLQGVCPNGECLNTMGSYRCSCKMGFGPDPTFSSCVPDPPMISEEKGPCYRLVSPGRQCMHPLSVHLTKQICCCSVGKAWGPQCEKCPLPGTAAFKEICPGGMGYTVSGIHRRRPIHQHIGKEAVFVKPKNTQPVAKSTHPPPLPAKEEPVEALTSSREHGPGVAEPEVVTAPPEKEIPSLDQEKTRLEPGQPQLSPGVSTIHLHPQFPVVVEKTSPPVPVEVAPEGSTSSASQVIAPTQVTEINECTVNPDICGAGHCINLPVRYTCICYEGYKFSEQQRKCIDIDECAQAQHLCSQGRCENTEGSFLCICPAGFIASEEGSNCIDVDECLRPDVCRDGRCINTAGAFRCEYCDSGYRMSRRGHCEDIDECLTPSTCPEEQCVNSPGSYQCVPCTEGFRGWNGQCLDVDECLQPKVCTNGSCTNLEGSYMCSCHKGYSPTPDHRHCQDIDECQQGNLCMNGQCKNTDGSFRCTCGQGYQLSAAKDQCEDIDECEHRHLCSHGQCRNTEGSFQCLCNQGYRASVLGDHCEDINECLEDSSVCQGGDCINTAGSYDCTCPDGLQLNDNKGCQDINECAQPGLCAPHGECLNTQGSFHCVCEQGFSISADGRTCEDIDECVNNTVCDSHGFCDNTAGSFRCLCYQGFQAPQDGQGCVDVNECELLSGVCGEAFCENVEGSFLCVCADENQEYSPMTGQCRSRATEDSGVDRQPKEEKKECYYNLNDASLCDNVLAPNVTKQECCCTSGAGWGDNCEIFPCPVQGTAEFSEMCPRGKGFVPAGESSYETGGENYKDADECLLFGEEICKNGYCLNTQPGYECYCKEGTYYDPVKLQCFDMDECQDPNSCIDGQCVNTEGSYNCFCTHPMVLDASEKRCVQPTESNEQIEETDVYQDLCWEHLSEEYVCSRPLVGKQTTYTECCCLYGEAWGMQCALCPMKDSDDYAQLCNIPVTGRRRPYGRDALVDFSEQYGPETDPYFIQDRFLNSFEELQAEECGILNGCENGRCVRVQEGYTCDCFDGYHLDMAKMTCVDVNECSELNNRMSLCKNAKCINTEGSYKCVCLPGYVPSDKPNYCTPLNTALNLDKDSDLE

[1] = system: calcium-binding EGF-like domains of LTBP1 (CE-LTBP1); experiment: Peptide binding to recombinant calcium-binding EGF-like domains of LTBP1 (CE-LTBP1)
Experimental: Binding assays utilizing intact hypertrophic chondrocyte-produced extracellular matrix, LTBP1 immunoprecipitates of hypertrophic chondrocyte-produced extracellular matrix and recombinant protein of the calcium-binding, EGF-like domains of LTBP1 (30) were performed as described in Materials and Methods. *=p<0.001 compared to scrambled. ***=p<0.001 compared to MMP13-derived peptide by ANOVA with Tukey's analysis. (A) Intact hypertrophic chondrocyte-produced extracellular matrix and MMP13-19 or MMP13-10 peptide binding. (B) 25 μg eluates of hypertrophic cartilage immunoprecipitated with polyclonal antibody to LTBP1 and MMP13-19 peptide binding. […]
Twenty-five micrograms of total equal protein from cartilage CHAPS extracts or five nanograms recombinant protein of the calcium-like EGF binding domain of LTBP1 (a kind gift of Sarah Dallas) or hypertrophic cartilage from day 17 avian embryo sterna and tibial growth plate cartilage from day 14 newborn rat pups were extracted with 0.5% CHAPS buffer and eluates immunoprecipitated with polyclonal antibody to LTBP1 and then samples were plated onto poly-L-lysine coated 96 well plates. […] After incubation, the wells are washed twice with binding buffer, the protein layer solubilized with 5N NaOH and fluorescence bound measured at 495 nm excitation and 520 nm emission on the LabSystems Fluoroskan Ascent CF plate reader. […]

## CC[C@H](C)[C@H](NC(=O)[C@H](CCCCN)NC(=O)[C@H](CCCCN)NC(=O)[C@@H](NC(=O)[C@H](CCC(=O)O)NC(=O)[C@H](CCCCN)NC(=O)[C@@H]1CCCN1C(=O)[C@H](CC(C)C)NC(=O)CNC(=O)[C@H](CC(C)C)NC(=O)[C@@H](N)CCC(=O)O)C(C)C)C(=O)N[C@@H](CO)C(=O)N[C@@H](C)C(=O)N[C@@H](C)C(=O)N[C@H](C(=O)N[C@@H](Cc1c[nH]cn1)C(=O)N[C@@H](Cc1ccccc1)C(=O)N[C@@H](CCC(=O)O)C(=O)N[C@@H](CC(=O)O)C(=O)O)C(C)C [MMP13-19 peptide] (H-ELGLPKEVKKISAAVHFED-OH)
LTBP1
  binding higher than scrambled control: 3.9 fold
[1]
  binding of recombinant protein more than scrambled peptide: 27 fold
